Experiment [1] concerns the target T1, native tomoregulin (TR) on TR-expressing cells (PC3-TR, CHO-TR) (human) (UniProt Q9UIK5).
T1 sequence (looked up): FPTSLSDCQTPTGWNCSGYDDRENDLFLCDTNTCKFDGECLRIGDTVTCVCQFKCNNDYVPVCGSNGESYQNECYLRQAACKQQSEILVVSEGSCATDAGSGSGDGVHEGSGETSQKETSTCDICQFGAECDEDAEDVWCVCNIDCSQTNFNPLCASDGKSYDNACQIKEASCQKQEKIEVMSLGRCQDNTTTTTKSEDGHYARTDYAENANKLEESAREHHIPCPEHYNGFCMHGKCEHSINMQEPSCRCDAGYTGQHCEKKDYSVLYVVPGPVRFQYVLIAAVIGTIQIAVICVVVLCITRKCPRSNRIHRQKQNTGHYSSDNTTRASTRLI
The experiment is described as follows: immunofluorescence, confocal microscopy on TR-positive cells.

The target of experiment [2] is T1, native tomoregulin (TR) on TR-expressing cells (PC3-TR, CHO-TR) (human). The experiment can be described thus: differential live cell ELISA on CHO-TR against CHOK1 cells, crude scFv supernatant, anti-Etag-HRP. (In general: ELISA stands for enzyme-linked immunosorbent assay.)
Experiment [3] addresses T2, recombinant TR protein (extracellular domain of TR, amino acids 1-302, C-terminal 6xHis tag) (human) (UniProt Q9UIK5).
T2 sequence (chain, glycosylated): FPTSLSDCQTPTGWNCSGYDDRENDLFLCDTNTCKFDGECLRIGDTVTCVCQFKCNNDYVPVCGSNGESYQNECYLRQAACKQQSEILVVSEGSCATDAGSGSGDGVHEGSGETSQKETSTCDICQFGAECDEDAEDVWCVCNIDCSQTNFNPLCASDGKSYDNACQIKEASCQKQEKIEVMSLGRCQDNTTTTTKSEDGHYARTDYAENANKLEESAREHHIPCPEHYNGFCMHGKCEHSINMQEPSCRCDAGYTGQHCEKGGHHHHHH
The experiment is described as follows: direct ELISA on recombinant TR.

Results are given in words; binding and its absence hold for the method and conditions named. Some entries that bind do so weakly or less than the wild type. For part of these data: Sequences can lack the tags named with a protein.

B1: AT-19 IgG (fully human IgG1 format of AT-19) (antibody, V domains shown)
VH: QVQLVQSGGGLVQPGGSLRLSCAASGFTFSNYAMSWVRQAPGKGLEWVSAISGNGGATYYADSMKGRFTISRDNSKNTLSLQLNSLRVEDTAVYYCAKSLIWGYDRGVDYWGQGTLVTVSA
VL: HVILTQPPSASGTPGQRVTISCSGGASNIGTNSVNWYQQLPGTAPKLLLYTNDHRPSGVPDRFSGKSGTSASLAISGLQAEDEGDYYCAAWDDTMNGHVVFGGGTKLTVLG
notes: also called fully human AT-19 IgG
With B1, the binding entry in experiment [1] is given as “binds”.

B2: AT-19 scFv (monomeric, monovalent single-chain anti-TR antibody) (scFv)
scFv: QVQLVQSGGGLVQPGGSLRLSCAASGFTFSNYAMSWVRQAPGKGLEWVSAISGNGGATYYADSMKGRFTISRDNSKNTLSLQLNSLRVEDTAVYYCAKSLIWGYDRGVDYWGQGTLVTVSAGGGGSGGGGSGGGGSGAPHVILTQPPSASGTPGQRVTISCSGGASNIGTNSVNWYQQLPGTAPKLLLYTNDHRPSGVPDRFSGKSGTSASLAISGLQAEDEGDYYCAAWDDTMNGHVVFGGGTKLTVLG
notes: also called monovalent AT-19 scFv; monomeric AT-19 scFv; not shown: E-tag from the pZ603 (pCANTAB5E-based) vector
For B2, the binding entry in experiment [2] and in experiment [3] was “binds” each time.

The values are drawn from patent US20060292074A1 (SCHERING AKTIENGESELLSCHAFT, published 2006).
